# Experimental data reported in PMC8552679.
# Amino acid sequences for entries named in this document (tags omitted). A change or cut given only in a name is not applied to a line headed by its entry.
# UniProt A8BPT7: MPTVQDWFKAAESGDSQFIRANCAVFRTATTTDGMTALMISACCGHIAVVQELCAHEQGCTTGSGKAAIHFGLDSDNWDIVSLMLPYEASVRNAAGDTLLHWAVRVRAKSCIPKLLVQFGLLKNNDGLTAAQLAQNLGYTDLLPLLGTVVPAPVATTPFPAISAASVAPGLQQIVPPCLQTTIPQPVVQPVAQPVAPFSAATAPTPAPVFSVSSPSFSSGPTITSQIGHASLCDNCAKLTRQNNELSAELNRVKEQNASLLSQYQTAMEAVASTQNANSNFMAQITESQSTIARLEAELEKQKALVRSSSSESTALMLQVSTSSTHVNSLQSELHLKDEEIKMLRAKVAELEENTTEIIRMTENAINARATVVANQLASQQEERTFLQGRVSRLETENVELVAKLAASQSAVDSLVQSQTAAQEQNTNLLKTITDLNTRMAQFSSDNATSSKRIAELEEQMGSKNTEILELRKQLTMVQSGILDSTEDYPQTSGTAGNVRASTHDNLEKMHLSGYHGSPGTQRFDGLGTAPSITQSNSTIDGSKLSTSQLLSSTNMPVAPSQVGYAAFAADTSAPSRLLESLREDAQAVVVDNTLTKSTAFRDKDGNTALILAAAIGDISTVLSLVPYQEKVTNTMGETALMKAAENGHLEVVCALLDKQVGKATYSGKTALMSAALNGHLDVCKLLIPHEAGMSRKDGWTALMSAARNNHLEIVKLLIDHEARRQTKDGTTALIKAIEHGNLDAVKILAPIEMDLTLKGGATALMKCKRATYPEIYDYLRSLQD
# UniProt A8BYC9: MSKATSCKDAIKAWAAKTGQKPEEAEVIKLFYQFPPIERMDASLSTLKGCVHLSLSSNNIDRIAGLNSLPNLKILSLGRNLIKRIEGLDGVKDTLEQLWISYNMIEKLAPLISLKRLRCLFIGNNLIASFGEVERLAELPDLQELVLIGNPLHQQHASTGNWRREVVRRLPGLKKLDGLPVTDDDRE
# UniProt E2RTT5: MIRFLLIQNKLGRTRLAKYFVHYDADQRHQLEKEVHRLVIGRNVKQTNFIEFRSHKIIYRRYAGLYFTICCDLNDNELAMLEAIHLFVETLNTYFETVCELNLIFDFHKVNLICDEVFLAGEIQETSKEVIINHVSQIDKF
# UniProt A8BXV9: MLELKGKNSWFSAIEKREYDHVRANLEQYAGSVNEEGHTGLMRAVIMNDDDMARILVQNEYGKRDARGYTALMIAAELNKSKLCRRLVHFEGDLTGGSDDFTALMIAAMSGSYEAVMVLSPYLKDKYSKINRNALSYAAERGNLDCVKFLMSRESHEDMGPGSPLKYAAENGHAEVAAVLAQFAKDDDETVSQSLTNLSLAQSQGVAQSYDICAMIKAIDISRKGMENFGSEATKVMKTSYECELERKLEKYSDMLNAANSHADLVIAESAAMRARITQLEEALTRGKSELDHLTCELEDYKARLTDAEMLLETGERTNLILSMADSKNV
# UniProt A8BL61: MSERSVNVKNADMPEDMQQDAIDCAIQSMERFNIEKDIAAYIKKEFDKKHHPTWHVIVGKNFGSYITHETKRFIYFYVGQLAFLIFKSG
# UniProt A8BCC2: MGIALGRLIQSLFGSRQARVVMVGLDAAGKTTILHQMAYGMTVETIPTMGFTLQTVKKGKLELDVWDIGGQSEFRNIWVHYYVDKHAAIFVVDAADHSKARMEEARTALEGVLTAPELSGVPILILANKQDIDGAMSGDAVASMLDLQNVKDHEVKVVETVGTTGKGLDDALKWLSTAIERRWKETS
# UniProt E2RTN7: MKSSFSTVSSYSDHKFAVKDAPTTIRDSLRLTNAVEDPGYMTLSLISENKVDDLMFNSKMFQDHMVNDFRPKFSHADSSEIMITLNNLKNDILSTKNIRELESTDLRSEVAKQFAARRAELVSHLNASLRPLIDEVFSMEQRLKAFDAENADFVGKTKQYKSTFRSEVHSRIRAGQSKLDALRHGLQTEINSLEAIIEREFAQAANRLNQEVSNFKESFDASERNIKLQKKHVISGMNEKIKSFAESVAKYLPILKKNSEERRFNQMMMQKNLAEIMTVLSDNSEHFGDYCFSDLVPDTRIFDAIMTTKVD
# UniProt A8B9U8: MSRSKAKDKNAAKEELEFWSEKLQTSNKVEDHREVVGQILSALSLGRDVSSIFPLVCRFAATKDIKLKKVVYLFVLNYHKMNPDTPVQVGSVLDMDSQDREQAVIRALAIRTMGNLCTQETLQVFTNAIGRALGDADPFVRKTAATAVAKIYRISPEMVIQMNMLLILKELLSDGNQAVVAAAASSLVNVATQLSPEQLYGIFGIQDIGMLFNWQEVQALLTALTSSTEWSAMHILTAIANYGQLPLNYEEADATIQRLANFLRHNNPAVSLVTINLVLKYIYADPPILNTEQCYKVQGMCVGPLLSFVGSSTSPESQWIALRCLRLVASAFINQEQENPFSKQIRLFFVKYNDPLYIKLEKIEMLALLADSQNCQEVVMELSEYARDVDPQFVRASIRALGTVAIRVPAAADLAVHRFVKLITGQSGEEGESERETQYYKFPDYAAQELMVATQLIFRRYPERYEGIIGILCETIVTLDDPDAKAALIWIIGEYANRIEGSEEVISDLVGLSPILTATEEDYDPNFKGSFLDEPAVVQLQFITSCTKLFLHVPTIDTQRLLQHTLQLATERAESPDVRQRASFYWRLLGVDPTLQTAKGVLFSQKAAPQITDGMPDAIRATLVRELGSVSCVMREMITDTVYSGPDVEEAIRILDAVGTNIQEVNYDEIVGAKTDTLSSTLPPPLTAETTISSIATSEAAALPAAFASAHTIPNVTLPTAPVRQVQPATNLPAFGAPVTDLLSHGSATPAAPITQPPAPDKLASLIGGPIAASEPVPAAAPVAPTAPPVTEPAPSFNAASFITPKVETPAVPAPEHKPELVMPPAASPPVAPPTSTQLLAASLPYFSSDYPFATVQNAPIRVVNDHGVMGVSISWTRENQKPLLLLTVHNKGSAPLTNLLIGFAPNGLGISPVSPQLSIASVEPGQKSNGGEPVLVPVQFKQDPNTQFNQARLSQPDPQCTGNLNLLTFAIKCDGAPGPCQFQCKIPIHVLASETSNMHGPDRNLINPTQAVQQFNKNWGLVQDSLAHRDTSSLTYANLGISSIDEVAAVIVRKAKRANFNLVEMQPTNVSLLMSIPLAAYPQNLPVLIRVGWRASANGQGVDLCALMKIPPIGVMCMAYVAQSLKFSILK
# UniProt E2RU45: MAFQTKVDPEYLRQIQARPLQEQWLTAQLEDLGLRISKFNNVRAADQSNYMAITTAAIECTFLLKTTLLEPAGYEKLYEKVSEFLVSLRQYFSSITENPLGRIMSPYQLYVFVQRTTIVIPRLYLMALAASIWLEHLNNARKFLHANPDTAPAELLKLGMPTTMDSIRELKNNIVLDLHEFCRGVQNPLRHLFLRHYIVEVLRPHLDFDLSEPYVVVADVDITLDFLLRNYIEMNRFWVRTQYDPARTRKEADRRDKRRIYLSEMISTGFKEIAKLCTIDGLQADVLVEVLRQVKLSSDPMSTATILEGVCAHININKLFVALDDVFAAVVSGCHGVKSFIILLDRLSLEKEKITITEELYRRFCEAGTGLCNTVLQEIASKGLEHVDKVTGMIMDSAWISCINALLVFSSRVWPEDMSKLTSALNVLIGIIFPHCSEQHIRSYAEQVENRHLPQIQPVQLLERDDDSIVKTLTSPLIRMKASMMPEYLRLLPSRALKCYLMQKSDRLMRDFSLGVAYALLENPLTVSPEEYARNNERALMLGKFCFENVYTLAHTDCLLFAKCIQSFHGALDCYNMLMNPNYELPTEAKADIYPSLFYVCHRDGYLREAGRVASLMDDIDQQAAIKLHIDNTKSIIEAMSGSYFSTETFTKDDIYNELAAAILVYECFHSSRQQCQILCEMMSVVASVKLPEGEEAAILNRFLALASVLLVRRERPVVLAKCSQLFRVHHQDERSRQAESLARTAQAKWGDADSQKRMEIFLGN
# UniProt A8BMP5: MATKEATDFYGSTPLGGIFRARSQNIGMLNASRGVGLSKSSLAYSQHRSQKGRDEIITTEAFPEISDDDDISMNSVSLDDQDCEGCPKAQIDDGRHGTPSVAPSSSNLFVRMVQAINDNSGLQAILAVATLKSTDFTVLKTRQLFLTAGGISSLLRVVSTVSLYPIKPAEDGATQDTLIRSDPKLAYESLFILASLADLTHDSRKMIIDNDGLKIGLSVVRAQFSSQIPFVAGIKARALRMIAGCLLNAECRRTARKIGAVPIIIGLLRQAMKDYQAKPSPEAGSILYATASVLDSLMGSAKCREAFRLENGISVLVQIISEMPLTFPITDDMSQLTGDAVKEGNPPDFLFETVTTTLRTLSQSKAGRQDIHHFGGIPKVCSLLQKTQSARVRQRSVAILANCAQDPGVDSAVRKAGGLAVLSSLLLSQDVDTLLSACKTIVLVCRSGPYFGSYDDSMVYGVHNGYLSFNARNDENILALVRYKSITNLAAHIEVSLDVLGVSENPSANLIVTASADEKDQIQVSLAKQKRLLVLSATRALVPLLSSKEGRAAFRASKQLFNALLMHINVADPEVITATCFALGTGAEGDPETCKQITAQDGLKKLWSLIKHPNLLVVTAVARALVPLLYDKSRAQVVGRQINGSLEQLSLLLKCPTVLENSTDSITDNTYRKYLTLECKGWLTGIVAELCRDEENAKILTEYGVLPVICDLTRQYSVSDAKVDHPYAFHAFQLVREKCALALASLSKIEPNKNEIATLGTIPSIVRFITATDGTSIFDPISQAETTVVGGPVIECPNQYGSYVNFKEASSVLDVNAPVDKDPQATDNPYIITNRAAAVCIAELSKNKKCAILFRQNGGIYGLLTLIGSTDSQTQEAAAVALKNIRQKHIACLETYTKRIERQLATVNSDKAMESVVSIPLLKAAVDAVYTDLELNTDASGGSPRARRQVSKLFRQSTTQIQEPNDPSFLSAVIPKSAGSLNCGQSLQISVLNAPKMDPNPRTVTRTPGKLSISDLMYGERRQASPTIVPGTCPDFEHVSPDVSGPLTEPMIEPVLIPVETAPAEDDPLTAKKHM
# UniProt A8BKY7: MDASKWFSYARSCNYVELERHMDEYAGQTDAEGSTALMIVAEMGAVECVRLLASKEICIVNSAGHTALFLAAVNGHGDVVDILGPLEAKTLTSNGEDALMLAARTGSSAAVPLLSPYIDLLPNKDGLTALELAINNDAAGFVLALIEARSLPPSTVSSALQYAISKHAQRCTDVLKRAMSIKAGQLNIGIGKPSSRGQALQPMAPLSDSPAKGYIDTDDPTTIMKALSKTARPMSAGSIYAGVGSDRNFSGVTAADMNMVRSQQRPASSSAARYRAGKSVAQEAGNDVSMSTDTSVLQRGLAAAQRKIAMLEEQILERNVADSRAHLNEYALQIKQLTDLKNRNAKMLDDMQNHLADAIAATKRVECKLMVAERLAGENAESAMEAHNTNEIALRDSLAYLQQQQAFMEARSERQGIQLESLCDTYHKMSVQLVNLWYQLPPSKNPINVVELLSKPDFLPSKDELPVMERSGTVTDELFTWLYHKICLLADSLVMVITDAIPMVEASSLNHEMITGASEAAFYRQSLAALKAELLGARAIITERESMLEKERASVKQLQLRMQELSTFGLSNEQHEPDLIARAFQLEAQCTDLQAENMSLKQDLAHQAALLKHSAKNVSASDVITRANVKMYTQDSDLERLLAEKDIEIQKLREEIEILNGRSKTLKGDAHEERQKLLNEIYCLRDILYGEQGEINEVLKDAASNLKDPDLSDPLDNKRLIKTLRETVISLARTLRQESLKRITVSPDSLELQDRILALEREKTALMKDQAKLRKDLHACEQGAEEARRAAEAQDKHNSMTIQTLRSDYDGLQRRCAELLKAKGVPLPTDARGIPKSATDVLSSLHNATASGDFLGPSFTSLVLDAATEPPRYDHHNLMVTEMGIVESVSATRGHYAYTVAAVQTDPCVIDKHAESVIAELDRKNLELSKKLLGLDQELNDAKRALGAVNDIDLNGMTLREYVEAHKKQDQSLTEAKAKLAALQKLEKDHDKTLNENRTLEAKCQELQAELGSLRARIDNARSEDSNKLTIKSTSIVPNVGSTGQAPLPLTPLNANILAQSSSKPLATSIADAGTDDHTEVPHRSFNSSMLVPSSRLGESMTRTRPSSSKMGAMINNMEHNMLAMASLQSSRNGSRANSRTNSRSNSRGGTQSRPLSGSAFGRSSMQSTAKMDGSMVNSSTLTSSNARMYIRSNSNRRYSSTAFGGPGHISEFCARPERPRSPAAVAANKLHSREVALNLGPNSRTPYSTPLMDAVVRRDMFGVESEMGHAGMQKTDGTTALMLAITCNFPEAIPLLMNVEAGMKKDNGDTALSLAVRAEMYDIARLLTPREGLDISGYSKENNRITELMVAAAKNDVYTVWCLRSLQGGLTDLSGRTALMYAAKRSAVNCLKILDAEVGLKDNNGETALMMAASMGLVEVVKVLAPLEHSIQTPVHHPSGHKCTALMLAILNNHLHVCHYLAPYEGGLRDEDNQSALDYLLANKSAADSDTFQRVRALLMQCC
# T1: Giardia lamblia actin (GlActin) (Giardia lamblia (endogenous in WB clone 6 trophozoites)), P51775
# T1 chain: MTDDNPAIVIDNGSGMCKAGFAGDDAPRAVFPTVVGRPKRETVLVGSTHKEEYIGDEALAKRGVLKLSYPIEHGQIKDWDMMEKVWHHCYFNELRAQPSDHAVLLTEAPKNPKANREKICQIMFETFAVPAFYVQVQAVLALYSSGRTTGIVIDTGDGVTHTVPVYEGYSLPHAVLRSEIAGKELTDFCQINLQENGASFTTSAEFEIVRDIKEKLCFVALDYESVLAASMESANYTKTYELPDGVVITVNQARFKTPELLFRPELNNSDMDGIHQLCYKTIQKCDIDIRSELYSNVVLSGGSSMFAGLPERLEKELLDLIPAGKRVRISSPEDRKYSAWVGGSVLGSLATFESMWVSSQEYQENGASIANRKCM
# B1: 14-3-3, E2RU97 1-248 (protein)
# chain: MAEAFTREDYVFMAQLNENAERYDEMVETMRKISGMEGELSDKERNLLSVAYKNVIGPRRAAWRIVSSIEAKEKGRQKPNAKRIEQIRVYRQKIEKELSDICNDILKLLQEQFVPRSTNADAKVFYYKMQGDYYRYLAEYSSGEDKEKIAGSALNAYNSAFEISQQLPPTHPIRLGLALNFSVFYYEILASPDRACELARKAFDAAITDLDKLTEESYKDSTLIMQLLRDNLNLWVTDSAGDDNAEEK
# How the values were obtained:
# [1] = biological target: Giardia lamblia actin (GlActin) (Giardia lamblia (endogenous in WB clone 6 trophozoites)) (UniProt P51775); assay: affinity purification with mass spectrometry; wild-type Giardia trophozoites lysed in G-buffer then DSP, in F-buffer then DSP, or treated with 1 mM DSP before lysis in F-buffer; anti-GlActin antibody overnight at 4°C, protein A agarose, washes with 150 mM NaCl added, glycine pH 2.5 elution, SDS-PAGE, LC-MS/MS; three replicates
# [2] = biological target: T1, Giardia lamblia actin (GlActin) …; assay: as above; conditions: remark: other sources report otherwise
Molecule,binding [1],binding [2]
GL50803_4259 (clathrin light chain) (from UniProt A8BHA7),binds,–
GL50803_4383 (ankyrin repeat protein) (from UniProt A8BPT7),binds,–
GL50803_4463 (dynein light chain) (from UniProt A8BYC9),binds,–
"GL50803_5328 (sigma adaptin, AP-2 complex) (from UniProt E2RTT5)",binds,–
GL50803_8044 (7 transmembrane domains) (from UniProt A8BZB0),binds,–
GL50803_9030 (ankyrin repeat) (from UniProt A8BXV9),binds,–
GL50803_9848 (dynein light chain) (from UniProt A8BL61),binds,–
GL50803_10038 (alpha-18 giardin) (from UniProt E2RU06),binds,–
GL50803_10429 (Wos2 protein) (from UniProt A8BM82),binds,–
GL50803_13930 (Arf3) (from UniProt A8BCC2),binds,–
GL50803_15124 (dynein light chain) (from UniProt A8BDA9),binds,–
GL50803_15591 (coiled-coil protein) (from UniProt A0A644F565),binds,–
GL50803_17153 (alpha-11 giardin) (from UniProt Q4VPP2),binds,–
GL50803_17230 (gamma-giardin) (from UniProt E2RTN7),binds,–
GL50803_21423 (beta adaptin) (from UniProt A8B9U8),binds,–
GL50803_23833 (VPS35) (from UniProt E2RU45),binds,–
GL50803_24451 (FGF domain) (from UniProt A8BGY8),binds,–
GL50803_27925 (ankyrin repeat) (from UniProt A8B440),binds,–
GL50803_33685 (armadillo repeat) (from UniProt A8BMP5),binds,–
GL50803_102813 (ankyrin repeat protein) (from UniProt A8BAG8),binds,–
GL50803_103855 (VPS29) (from UniProt A0A644F1B7),binds,–
GL50803_113622 (ankyrin repeat) (from UniProt A8BKY7),binds,–
B1,–,binds

# No constants are given. Whether binding was seen depends on the method and setting. In cells and extracts the contact can be indirect. A yes stands for co-enrichment or nearness to the bait. Other partners may have been found.
